“And” between values parts separate entries of the source, which are not always exact repeats. Identical values can stand only once.
Tested on: HUVEC cells
Assay: MTT in vitro cytotoxicity assay, HUVEC (normal cells)
Assay type: cell-based, human
Settings: selectivity, normal HUVEC vs HL-60 cells, 48 h
Description: The promyelocytic leukemia HL-60 and breast cancer adenocarcinoma MCF-7 cell lines were purchased from the European Collection of Cell Cultures (ECACC). Leukemia cells were cultured in RPMI 1640 plus GlutaMax I medium (Gibco/Life Technologies, Carlsbad, CA, USA). MCF-7 cells were maintained in Minimum Essential Medium Eagle (Sigma Aldrich, St. Louis, MO, USA) and supplemented with 2 mM glutamine and men non-essential amino acid solution (Sigma Aldrich, St. Louis, MO, USA). Both media were supplemented with 10% heat-inactivated fetal bovine serum (Biological Industries, Beit-Haemek, Israel) and antibiotics (100 U/mL penicillin and 100 μg/mL streptomycin) (Sigma-Aldrich, St. Louis, MO, USA). Human umbilical vein endothelial cells (HUVECs) were purchased from the American Type Culture Collection (ATCC). Cells were cultured using EGM-2 Endothelial Medium BulletKit purchased from Lonza (Lonza, Walkersville, MD, USA). Cells were maintained at 37 °C in 5% CO2 atmosphere and grown until 80% confluent.
The tested compounds were dissolved in sterile dimethyl sulfoxide (DMSO) and further diluted with culture medium. The final concentration of DMSO in cell cultures was less than 0.1% v/v. Controls without and with 0.1% DMSO were performed in each experiment. At the used concentration, DMSO had no effect on the observed parameters.
The MTT (3-(4,5-dimethylthiazol-2-yl)-2,5-diphenyltetrazolium bromide) assay, which measures the activity of cellular dehydrogenases, was performed according to the Mosmann method. Exponentially growing cells were seeded into 24-well plates at a density of 8 × 10^4 cells/mL and left to grow for 24 h. After 24 h or 48 h of incubation with various concentrations of the tested compounds (dissolved in DMSO and diluted with complete culture medium), cells were incubated with 0.1 mL of MTT solution (5 mg/mL in phosphate buffered saline) for 1.5 h. The metabolically active cells reduced MTT to blue formazan crystals. The plates were centrifuged, and the supernatant was discarded. DMSO (1 mL) was added to each well to dissolve the crystals, whose absorbance was measured at 560 nm using FlexStation 3 Multi-Mode Microplate Reader (Molecular Devices, LLC, San Jose, CA, USA). The untreated cells were used as control. The IC50 values were calculated from the concentration–response curves. The data were expressed as mean ± SEM of three independent experiments.

Row | SMILES | HUVEC/HL-60 IC50 Ratio | HUVEC/HL-60 IC50 Ratio (listed as 2-Ethyl-3-methylidene-1-phenylsulfonyl-2,3-dihydroquinolin-4(1H)-one)
1 | C=C1C(=O)c2ccccc2N(S(=O)(=O)c2ccc(Cl)cc2)C1CC (centres unmarked) [Compound 5e, 1-((4-Chlorophenyl)sulfonyl)-2-ethyl-3-methylidene-2,3-dihydroquinolin-4(1H)-one] | 2.03 | –
2 | C=C1C(=O)c2cc(OC)c(OC)cc2N(S(=O)(=O)c2ccc(C)cc2)C1CC (centres unmarked) [Compound 5i, 2-Ethyl-6,7-dimethoxy-3-methylidene-1-tosyl-2,3-dihydroquinolin-4(1H)-one] | 1.14 | –
3 | N.N.O=C([O-])C1(C(=O)[O-])CCC1.[Pt+2] [Carboplatin, reference compound] | 1.41 | –
4 | C=C1C(=O)c2cc(Br)ccc2N(S(=O)(=O)c2ccc(C)cc2)C1C(C)C (centres unmarked) [Compound 5r, 6-Bromo-3-methylidene-2-(propan-2-yl)-1-tosyl-2,3-dihydroquinolin-4(1H)-one] | 2.47 | –
5 | C=C1C(=O)c2cc(Cl)ccc2N(S(=O)(=O)c2ccc(C)cc2)C1C(C)C (centres unmarked) [Compound 5n, 6-Chloro-3-methylidene-2-(propan-2-yl)-1-tosyl-2,3-dihydroquinolin-4(1H)-one] | 1.01 | –
6 | C=C1C(=O)c2cc(OC)c(OC)cc2N(S(=O)(=O)c2ccc(C)cc2)C1C(C)C (centres unmarked) [Compound 5j, 6,7-Dimethoxy-3-methylidene-2-(propan-2-yl)-1-tosyl-2,3-dihydroquinolin-4(1H)-one] | 2.30 | –
7 | C=C1C(=O)c2ccccc2N(S(=O)(=O)c2ccccc2)C1C(C)C (centres unmarked) [Compound 5b, 3-Methylidene-1-(phenylsulfonyl)-2-(propan-2-yl)-2,3-dihydroquinolin-4(1H)-one] | 2.67 | –
8 | C=C1C(=O)c2ccccc2N(S(=O)(=O)c2ccccc2)C1CC (centres unmarked) [Compound 5a, 2-Ethyl-3-methylidene-1-(phenylsulfonyl)-2,3-dihydroquinolin-4(1H)-one] | 5 and 5.50 | over 5
9 | C=C1C(=O)c2ccccc2N(S(=O)(=O)c2ccc(Cl)cc2)C1C(C)C (centres unmarked) [Compound 5f, 1-((4-Chlorophenyl)sulfonyl)-3-methylidene-2-(propan-2-yl)-2,3-dihydroquinolin-4(1H)-one] | 4.30 | –
10 | C=C1C(=O)c2cc(Br)ccc2N(S(=O)(=O)c2ccc(C)cc2)C1CC (centres unmarked) [Compound 5q, 6. -Bromo-2-ethyl-3-methylidene-1-tosyl-2,3-dihydroquinolin-4(1H)-one] | 1.64 | –

From paper PMC9181899, “Synthesis and Anticancer Properties of New 3-Methylidene-1-sulfonyl-2,3-dihydroquinolin-4(1H)-ones” (Molecules, 2022)
